From article PMC11792579
Residue numbers refer to the chain shown, from its start. No constants are given. Whether binding was seen depends on the method and setting. Binding seen in cells or lysates may run through a third protein. Some results given as binding are weak or reduced against the parent protein; the word gives no strength. Tags and fused reporters may be left off the sequences shown.

The chains behind the UniProt entries cited, without tags or fusion partners.
UniProt O95071: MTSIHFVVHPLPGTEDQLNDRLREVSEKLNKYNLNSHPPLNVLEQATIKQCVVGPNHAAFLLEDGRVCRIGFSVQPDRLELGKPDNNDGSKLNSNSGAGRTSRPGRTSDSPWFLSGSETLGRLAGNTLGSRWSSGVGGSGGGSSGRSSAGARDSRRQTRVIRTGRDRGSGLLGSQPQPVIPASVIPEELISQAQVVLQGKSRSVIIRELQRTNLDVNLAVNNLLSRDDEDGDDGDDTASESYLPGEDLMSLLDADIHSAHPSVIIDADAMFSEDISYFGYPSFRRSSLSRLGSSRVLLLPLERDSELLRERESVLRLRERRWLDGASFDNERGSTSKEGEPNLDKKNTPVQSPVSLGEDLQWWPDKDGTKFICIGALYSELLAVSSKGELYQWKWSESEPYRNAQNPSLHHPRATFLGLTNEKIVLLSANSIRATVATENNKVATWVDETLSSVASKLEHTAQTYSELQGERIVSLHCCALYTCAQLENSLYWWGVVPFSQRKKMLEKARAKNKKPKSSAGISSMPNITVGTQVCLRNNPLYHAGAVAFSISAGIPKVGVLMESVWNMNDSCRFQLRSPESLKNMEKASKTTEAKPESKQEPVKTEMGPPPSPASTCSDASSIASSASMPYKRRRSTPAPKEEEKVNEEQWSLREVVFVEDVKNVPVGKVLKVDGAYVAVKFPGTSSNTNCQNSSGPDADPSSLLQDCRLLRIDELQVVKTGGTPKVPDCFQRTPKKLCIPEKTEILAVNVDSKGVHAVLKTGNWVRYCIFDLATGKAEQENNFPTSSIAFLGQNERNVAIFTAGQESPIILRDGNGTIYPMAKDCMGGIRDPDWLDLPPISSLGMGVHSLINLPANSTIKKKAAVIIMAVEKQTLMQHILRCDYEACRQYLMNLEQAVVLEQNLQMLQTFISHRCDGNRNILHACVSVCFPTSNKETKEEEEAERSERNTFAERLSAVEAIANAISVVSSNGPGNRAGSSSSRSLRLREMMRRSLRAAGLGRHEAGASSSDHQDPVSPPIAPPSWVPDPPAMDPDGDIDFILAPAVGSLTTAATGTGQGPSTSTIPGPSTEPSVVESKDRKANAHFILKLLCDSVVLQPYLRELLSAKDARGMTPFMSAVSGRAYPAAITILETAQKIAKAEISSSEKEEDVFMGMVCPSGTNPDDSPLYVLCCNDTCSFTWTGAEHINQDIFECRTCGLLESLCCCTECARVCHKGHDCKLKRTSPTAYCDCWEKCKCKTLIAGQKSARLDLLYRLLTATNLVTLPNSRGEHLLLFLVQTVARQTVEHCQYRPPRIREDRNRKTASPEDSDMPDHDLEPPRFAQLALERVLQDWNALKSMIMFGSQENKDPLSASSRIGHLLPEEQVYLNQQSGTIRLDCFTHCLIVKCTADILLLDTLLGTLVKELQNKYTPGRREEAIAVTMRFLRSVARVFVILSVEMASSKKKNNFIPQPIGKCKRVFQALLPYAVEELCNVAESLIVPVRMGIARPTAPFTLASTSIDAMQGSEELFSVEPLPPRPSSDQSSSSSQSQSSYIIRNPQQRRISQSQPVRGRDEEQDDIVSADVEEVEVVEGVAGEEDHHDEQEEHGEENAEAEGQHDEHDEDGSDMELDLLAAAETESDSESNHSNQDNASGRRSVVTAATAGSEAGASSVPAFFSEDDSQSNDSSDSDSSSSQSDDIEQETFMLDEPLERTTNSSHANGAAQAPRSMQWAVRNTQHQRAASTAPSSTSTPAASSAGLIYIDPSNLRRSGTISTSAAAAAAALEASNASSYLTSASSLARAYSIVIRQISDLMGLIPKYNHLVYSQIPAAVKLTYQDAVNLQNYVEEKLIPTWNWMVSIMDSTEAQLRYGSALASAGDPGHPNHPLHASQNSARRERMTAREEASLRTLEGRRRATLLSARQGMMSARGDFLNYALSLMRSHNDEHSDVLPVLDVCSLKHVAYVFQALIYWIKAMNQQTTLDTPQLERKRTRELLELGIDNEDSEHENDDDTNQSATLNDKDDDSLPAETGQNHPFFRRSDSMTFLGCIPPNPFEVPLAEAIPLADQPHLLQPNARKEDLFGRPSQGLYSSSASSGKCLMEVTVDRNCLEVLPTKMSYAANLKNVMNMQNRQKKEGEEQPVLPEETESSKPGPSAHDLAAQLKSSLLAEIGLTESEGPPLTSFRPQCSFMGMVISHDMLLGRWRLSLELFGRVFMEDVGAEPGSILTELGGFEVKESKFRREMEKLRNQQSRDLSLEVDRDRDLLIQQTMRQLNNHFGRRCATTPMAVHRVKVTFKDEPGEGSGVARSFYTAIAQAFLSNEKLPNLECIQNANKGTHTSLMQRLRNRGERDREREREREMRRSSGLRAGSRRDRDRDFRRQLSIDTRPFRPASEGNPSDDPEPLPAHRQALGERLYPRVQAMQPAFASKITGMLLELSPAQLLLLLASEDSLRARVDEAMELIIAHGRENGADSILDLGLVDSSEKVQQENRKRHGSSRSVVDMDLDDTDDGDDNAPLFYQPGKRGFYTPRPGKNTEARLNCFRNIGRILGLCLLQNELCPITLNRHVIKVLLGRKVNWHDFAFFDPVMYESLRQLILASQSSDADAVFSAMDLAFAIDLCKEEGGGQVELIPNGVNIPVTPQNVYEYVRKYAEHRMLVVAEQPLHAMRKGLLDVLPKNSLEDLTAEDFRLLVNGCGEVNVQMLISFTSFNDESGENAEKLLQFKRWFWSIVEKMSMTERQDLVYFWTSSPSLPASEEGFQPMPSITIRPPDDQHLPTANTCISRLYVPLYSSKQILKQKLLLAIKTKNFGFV

How the values were obtained:
HA-NAT10 K274R = target: T1, HA-NAT10 K274R (UniProt Q9H0A0); assay: co-IP; HA-NAT10 (WT or K-R mutants) co-expressed with MYC-Ub and Flag-UBR5; MG132 (100 nM, 8 h); IP with HA antibody, immunoblotting
T1 sequence: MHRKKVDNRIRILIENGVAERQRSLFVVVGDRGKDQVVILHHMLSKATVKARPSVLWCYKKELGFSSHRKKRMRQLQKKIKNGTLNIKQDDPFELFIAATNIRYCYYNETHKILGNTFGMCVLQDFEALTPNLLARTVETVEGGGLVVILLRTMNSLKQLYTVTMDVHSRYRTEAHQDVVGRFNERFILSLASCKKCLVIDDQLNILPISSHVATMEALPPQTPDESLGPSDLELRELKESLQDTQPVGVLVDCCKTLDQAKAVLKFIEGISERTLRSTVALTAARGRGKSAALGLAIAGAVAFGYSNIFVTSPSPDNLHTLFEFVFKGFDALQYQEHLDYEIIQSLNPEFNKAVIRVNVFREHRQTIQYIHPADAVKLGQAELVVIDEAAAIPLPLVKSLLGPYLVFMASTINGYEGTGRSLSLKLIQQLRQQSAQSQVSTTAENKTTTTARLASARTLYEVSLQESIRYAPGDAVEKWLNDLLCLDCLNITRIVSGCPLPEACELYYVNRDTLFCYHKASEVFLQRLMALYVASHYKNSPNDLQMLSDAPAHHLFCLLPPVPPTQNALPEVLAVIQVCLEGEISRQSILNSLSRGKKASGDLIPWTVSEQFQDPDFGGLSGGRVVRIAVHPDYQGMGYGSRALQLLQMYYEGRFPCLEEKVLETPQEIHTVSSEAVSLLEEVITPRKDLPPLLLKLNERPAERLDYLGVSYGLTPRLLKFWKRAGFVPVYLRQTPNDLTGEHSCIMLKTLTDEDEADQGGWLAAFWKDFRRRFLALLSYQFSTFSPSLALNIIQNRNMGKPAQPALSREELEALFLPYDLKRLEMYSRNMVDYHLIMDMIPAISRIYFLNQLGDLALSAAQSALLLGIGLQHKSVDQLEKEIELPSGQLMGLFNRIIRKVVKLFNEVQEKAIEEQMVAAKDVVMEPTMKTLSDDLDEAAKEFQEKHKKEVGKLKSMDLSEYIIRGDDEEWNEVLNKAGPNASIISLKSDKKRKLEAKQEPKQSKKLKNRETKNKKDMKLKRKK

HA-NAT10 K195R = target: T2, HA-NAT10 K195R (UniProt Q9H0A0); assay: as above
T2 sequence: T1 sequence with K195R, R274K

binding (HA-NAT10 K274R): binds | binding (HA-NAT10 K195R): binds
Substance: FLAG-UBR5 (from UniProt O95071 1-2799)
